In patent US20250154277A1 (CONCEPT TO MEDICINE BIOTECH, published 2025):
These are yes or no findings as the source states them, for the method shown. Some binding calls cover weakened binding; strength is not graded here.

B1: Hu393E9-53-P2 triAb (protein, not shown: a dimerising Fc or GST; small tags and cut ends)
VH: EVQLVESGGGLVQPGRSLRLSCTASGFTFTDYYMSWVRQAPGKGLEWVGFIRNKGNGYTTEYSASVKGRFTISRDNSKSILYLQMNSLKTEDTAVYYCARYRGNPHYAMDYWGQGTLVTVSS
VL: DIQLTQSPSSLSASVGDRVTITCRASESVEFYGTSFLQWYQQKPGKAPKLLIYGASNVESGVPSRFSGSGSGTDFTLTISSLQPEDIATYFCQQSRKVPSTFGGGTKVEIK
B2: trispecific antibody with anti-5T4 portion of Hu286B4-3-P1 (protein, not shown: a dimerising Fc or GST; small tags and cut ends)
VH: EVQLQESGPGLVKPSDTLSLTCAVSGYSISNNYYWNWIRQPPGKGLEWIGYITYDASNNYNPSLKNRVTMSRDTSKNQFSLKLSSVTAVDTAVYYCARGGGQLRFDYWGQGTTVTVSS
VL: DIQMTQSPSSLSASVGDRVTITCKASQSVSNEVTWYQQKPGKAPKMLIYYASNRYTGVPDRFSGSGYGTDFTFTISSLQPEDIATYYCQQDYSSPWTFGGGTKVEIK
B3: trispecific antibody with anti-5T4 portion of Hu286B4-5-P1 (protein, not shown: a dimerising Fc or GST; small tags and cut ends)
VH: EVQLQESGPGLVKPSDTLSLTCAVSGYSISNNYYWNWIRQPPGKGLEWIGYITYDASNNYNPSLKNRVTMSRDTSKNQFSLKLSSVTAVDTAVYYCARGGGQLRFDYWGQGTTVTVSS
VL: SIVMTQSPSSLSASVGDRVTITCKASQSVSNEVTWYQQKPGKSPKMLIYYASNRYTGVPDRFSGSGYGTDFTFTISSLQPEDIATYFCQQDYSSPWTFGGGTKVEIK
B4: trispecific antibody with anti-5T4 portion of Hu286B4-8-P1 (protein, not shown: a dimerising Fc or GST; small tags and cut ends)
VH: EVQLQESGPGLVKPSDTLSLTCAVSGYSISNNYYWNWIRQPPGKGLEWIGYITYDASNNYNPSLKNRITMSRDTSKNQFSLKLSSVTAVDTAVYYCARGGGQLRFDYWGQGTTVTVSS
VL: DIQMTQSPSSLSASVGDRVTITCKASQSVSNEVTWYQQKPGKAPKMLIYYASNRYTGVPDRFSGSGYGTDFTFTISSLQPEDIATYYCQQDYSSPWTFGGGTKVEIK
B5: trispecific antibody with anti-5T4 portion of Hu286B4-15-P1 (protein, not shown: a dimerising Fc or GST; small tags and cut ends)
VH: EVQLQESGPGLVKPSDTLSLTCAVSGYSISNNYYWNWIRQPPGKGLEWMGYITYDASNNYNPSLKNRITVSRDTSKNQFSLKLSSVTAVDTAVYYCARGGGQLRFDYWGQGTTVTVSS
VL: SIVMTQSPSSLSASVGDRVTITCKASQSVSNEVTWYQQKPGKSPKMLIYYASNRYTGVPDRFSGSGYGTDFTFTISSLQPEDIATYFCQQDYSSPWTFGGGTKVEIK

What was measured:
[1] = molecular target: T1, human 5T4 expressed on cells (human, UniProt Q13641 32-420); assay: flow cytometry, CHOK1-hu5T4 cells
T1 construct: whole, on cells; also called CHOK1-hu5T4; CHO-K1-expressing human 5T4
T1 sequence (looked up): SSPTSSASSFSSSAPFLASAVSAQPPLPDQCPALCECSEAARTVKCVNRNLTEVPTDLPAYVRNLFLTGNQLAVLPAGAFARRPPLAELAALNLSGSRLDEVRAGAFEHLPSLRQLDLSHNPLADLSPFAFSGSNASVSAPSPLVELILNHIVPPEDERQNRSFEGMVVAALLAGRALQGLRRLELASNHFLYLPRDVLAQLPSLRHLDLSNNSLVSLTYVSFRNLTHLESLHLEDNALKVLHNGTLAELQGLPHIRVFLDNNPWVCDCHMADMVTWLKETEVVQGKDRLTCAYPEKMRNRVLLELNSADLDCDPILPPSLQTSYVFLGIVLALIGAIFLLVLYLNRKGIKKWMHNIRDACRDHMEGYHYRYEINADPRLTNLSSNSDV

[2] = molecular target: T1, human 5T4 expressed on cells; assay: flow cytometry, CHOK1-hu5T4 cells (FIG. 18)

Row | Binder | binding [1] | binding [2]
1 | B1 | binds | –
2 | B2 | binds | binds
3 | B3 | binds | binds
4 | B4 | binds | binds
5 | B5 | binds | binds
